# Laboratory results taken from PubChem BioAssay (EPA / NIEHS).
# Amino acid sequences for entries named in this document (tags omitted). A change or cut given only in a name is not applied to a line headed by its entry.
# UniProt P49137, whole entry, looked up: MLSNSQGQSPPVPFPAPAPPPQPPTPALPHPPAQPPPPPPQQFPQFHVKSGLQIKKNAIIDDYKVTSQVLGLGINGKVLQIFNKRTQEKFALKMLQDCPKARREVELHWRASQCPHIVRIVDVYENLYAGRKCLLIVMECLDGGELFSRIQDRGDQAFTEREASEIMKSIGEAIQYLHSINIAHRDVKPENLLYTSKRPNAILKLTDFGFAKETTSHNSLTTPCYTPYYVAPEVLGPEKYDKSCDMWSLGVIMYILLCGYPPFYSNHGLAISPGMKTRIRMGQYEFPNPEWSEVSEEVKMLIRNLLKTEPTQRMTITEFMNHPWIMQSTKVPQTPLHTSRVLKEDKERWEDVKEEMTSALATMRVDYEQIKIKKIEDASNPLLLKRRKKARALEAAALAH
# UniProt Q13131: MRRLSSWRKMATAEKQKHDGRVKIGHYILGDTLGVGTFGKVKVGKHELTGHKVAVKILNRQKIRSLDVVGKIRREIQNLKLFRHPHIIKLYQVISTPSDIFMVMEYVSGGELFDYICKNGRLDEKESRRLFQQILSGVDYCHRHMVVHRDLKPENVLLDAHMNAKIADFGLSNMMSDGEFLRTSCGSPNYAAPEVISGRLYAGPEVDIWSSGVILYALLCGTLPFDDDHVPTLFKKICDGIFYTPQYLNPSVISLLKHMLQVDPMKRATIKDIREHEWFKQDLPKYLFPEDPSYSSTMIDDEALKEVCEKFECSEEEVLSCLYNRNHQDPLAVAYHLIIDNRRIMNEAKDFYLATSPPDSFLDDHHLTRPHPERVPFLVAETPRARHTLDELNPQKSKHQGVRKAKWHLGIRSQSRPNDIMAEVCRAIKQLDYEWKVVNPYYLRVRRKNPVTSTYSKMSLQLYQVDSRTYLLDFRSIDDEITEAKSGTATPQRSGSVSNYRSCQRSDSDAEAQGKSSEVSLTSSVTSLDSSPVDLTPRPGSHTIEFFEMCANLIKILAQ
# UniProt O15111: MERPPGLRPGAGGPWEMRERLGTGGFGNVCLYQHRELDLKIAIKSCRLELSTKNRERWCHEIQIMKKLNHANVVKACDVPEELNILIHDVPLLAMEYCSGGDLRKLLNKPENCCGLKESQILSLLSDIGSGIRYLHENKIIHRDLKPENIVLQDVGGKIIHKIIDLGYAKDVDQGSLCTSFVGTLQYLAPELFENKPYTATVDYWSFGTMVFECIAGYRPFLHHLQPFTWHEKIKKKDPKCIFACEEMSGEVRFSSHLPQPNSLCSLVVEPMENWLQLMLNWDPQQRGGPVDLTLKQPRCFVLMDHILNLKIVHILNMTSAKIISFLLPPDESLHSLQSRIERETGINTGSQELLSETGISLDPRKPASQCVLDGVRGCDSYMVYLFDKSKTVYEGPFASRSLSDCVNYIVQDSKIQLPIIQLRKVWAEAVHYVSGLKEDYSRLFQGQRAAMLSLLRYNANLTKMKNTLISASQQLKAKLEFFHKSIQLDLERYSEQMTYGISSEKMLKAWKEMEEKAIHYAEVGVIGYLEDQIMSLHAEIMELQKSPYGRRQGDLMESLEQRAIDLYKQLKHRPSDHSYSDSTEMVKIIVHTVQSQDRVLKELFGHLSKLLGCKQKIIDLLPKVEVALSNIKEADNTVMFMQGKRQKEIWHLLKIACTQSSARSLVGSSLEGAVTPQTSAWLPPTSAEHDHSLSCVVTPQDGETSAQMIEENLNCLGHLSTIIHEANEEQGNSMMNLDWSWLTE
# UniProt P09237: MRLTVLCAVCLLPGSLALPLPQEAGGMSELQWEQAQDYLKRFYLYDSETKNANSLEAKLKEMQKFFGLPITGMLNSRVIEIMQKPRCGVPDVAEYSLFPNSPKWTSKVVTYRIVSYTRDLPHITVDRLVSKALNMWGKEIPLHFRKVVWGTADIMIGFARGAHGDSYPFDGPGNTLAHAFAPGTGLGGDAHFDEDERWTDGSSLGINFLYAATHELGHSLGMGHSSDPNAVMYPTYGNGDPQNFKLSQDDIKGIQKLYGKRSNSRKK
# UniProt P47900: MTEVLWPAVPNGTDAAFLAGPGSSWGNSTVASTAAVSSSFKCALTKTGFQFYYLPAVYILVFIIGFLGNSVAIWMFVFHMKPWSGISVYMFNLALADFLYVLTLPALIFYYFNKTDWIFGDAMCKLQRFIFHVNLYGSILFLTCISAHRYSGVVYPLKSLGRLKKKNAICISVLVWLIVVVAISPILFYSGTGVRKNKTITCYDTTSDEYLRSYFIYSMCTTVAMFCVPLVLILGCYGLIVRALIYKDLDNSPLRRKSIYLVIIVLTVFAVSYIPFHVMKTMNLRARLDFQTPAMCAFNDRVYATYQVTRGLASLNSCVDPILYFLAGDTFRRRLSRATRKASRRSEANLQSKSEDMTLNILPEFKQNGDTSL
# UniProt Q9HCS2: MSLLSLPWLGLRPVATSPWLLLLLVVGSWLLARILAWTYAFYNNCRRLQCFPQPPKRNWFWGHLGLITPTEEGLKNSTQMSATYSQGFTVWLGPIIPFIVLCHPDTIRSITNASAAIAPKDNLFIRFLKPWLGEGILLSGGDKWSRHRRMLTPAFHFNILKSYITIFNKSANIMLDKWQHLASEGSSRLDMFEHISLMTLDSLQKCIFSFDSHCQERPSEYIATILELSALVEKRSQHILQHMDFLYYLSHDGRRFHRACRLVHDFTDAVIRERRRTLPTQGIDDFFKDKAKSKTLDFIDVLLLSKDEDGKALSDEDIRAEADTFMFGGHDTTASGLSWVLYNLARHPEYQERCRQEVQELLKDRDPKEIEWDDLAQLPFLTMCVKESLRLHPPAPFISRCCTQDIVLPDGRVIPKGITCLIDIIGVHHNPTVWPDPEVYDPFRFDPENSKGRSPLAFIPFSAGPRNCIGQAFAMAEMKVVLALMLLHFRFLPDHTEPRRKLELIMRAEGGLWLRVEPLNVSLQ
# UniProt Q9PVE4: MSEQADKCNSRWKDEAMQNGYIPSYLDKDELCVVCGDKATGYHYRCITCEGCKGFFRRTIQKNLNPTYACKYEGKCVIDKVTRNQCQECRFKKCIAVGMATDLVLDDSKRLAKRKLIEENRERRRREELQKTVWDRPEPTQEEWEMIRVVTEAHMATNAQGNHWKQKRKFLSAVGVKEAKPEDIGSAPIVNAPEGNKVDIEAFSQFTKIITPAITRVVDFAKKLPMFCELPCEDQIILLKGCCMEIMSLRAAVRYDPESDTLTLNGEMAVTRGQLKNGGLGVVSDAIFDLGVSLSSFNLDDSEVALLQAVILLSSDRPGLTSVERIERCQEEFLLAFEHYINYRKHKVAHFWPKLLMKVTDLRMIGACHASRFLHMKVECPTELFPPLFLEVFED
# UniProt P08254: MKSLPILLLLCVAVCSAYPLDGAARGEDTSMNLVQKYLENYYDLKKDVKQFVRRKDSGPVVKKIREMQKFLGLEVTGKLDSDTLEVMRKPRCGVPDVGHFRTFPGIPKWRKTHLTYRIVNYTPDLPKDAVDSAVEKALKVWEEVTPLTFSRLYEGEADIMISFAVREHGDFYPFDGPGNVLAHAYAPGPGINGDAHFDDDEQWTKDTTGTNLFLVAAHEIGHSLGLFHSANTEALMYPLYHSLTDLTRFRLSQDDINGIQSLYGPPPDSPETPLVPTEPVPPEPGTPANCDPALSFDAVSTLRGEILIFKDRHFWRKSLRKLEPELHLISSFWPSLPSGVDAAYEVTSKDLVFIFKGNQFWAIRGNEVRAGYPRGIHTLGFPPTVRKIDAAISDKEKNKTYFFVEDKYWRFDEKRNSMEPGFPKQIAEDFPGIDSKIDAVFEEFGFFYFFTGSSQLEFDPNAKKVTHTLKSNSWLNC
# UniProt P19327, whole entry, looked up: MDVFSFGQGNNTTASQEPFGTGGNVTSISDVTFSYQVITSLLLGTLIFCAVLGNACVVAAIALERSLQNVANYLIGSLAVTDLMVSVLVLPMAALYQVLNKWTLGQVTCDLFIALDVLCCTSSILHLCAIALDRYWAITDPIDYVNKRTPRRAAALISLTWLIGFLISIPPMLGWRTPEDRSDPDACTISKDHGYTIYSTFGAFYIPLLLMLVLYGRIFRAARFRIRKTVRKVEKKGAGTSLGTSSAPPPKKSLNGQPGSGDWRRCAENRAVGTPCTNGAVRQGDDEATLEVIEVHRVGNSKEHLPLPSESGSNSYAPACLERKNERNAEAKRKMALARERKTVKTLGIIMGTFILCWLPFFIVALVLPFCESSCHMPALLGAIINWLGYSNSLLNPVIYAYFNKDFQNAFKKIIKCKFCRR
# UniProt P20789, whole entry, looked up: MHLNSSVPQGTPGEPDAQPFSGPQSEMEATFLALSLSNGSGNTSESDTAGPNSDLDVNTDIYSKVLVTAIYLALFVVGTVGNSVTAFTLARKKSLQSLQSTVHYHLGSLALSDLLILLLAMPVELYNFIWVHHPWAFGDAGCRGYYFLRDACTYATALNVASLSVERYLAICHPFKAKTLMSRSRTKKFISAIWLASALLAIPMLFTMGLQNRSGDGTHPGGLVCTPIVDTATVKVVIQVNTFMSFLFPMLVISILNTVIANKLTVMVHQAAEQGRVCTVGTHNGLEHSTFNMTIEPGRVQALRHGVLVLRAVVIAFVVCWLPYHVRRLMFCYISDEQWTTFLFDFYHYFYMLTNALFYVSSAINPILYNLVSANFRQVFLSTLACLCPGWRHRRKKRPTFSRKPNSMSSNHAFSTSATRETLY
# UniProt P41144: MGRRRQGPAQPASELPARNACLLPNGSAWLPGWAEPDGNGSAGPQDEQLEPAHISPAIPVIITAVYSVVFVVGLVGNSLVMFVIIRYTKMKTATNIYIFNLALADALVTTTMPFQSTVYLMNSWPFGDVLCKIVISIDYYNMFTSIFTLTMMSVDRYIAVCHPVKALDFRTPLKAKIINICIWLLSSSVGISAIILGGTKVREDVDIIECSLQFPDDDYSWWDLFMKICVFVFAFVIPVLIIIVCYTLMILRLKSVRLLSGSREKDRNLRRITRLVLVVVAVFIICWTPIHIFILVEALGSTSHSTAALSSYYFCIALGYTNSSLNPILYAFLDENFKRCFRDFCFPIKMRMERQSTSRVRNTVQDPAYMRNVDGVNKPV
# “And” between values parts separate entries of the source, which are not always exact repeats. Identical values can stand only once. Inconclusive results, whose numbers are uncertain, are shown with a selection of clear calls. For some of these results: Potencies beside an inconclusive call are fits to weak or partial responses and may not hold up. The source holds several records for some structures; these can differ, active in one and inactive in another. The source made the active and inactive calls. Rule for the calls: active = hit-call score of the fitted dose curve at least 0.9, where 1 is the maximum; inconclusive = response in the unintended direction; inactive = score below 0.9.
# Legend:
# [1] = target: human MAP Kinase-Activated Protein Kinase 2 (MAPKAPK2), MAPKAPK2 (gene 9261) (UniProt P49137); test: NVS_ENZ_hMAPKAPK2: NovaScreen (NVS) Enzymatic Assay for human MAP Kinase-Activated Protein Kinase 2 (MAPKAPK2) (AID 2283178)
# Procedure, shortened: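 Cell-free recombinant human MAPKAPK2 activity measured by fluorescence with electrophoretic mobility shift separation of substrate and product, 1 hr after dosing. Loss of signal versus DMSO; primary screen at 25 uM, concentration-response up to 50 uM.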
# [2] = system: Thyroperoxidase (TPO), gene 54314; test: CCTE_Simmons_AUR_rTPO: CCTE's Amplex UltraRed Assay for Thyroperoxidase (TPO) Inhibition, Simmons Lab (AID 2283662)
# Procedure, shortened: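 Rat thyroid microsomes (5 ug protein) were incubated with test compound (8 concentrations, 5 nM–87.5 uM final, 0.5% DMSO), 25 uM Amplex UltraRed and 300 uM H2O2 in 200 mM phosphate buffer for 30 min at 37C in the dark; fluorescence read at 544/590 nm.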
# [3] = target: Beta-2 adrenergic receptor (Homo sapiens) (UniProt P07550); test: NVS_GPCR_hAdrb2: NovaScreen (NVS) G Protein-Coupled Receptor Assay for human Adrenergic, Beta 2 Receptor (Adrb2) (AID 2283261)
# Procedure, shortened: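 Filter-based radioligand binding using receptor prepared from CHO cells, 1 h incubation, scintillation counting. Primary screen in duplicate at 25 uM, actives retested in concentration series; loss of binding relative to DMSO.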
# [4] = NVS_IC_rCaDHPRCh_L: NovaScreen (NVS) Ion Channel Assay for rat Calcium Channel, Type L, Dihydropyridine Site (CaDHPRCh_L) (AID 2283320)
# Procedure, shortened: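 Radioligand binding to dihydropyridine site on rat cortical membranes, filter-based scintillation counting, 1 h after dosing. Screened in duplicate at 25 uM; actives rerun in concentration-response up to 50 uM. Loss of signal versus DMSO baseline.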
# [5] = system: Sodium/Iodide Symporter (NIS), SLC5A5 (gene 6528); test: CPHEA_Stoker_NIS_Inhibition_RAIU: CPHEA's Radioactive Iodide Uptake (RAIU) Assay for Sodium/Iodide Symporter (NIS) Inhibition, Stoker and Laws Labs (AID 2283841)
# Procedure, shortened: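 Iodide uptake read as CPM of intracellular 125I (final 329 pM) after 2 h room-temperature exposure in HEPES-buffered HBSS, pH 7.4. Human NIS-expressing HEK293T cells; six concentrations 0.001–100 uM, 0.5% DMSO, normalised to DMSO wells.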
# [6] = ArunA_Migration_hNC: ArunA Biomedical's Oris Neural Crest (hNC) Cell Migration Assay (AID 2283755)
# Procedure, shortened: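 Human H9-derived neural crest stem cells, 60,000/well on Matrigel, 16 h at 37C, then 72 h chemical exposure after seeding-stopper removal. Migration into detection zone read as calcein-AM fluorescence (ex494/em517), relative to DMSO.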
# [7] = target: human AMP-activated Protein Kinase, alpha 1 (AMPKa1), PRKAA1 (gene 5562) (UniProt Q13131); test: NVS_ENZ_hAMPKa1: NovaScreen (NVS) Enzymatic Assay for human AMP-activated Protein Kinase, alpha 1 (AMPKa1) (AID 2283130)
# Procedure, shortened: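 Recombinant human AMPKα1 activity was measured cell-free by fluorescent substrate conversion with electrophoretic mobility-shift separation, 1 h after dosing. Duplicate single-point screening was at 25 uM; actives (≥30% inhibition) were retested in concentration-response up to 50 uM.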
# [8] = target: human IkappaB Kinase alpha (IKKa), CHUK (gene 1147) (UniProt O15111); test: NVS_ENZ_hIKKa: NovaScreen (NVS) Enzymatic Assay for human IkappaB Kinase alpha (IKKa) (AID 2283167)
# Procedure, shortened: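 Cell-free recombinant human IKKa with fluorescent substrate, product separated by electrophoretic mobility shift; read 1 hour after dosing. Primary screen duplicate at 25 uM, actives then concentration-response up to 50 uM; loss of signal relative to DMSO.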
# [9] = target: human Matrix Metalloproteinase-7 (MMP7), MMP7 (gene 4316) (UniProt P09237); test: NVS_ENZ_hMMP7: NovaScreen (NVS) Enzymatic Assay for human Matrix Metalloproteinase-7 (MMP7) (AID 2283183)
# Procedure, shortened: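 Cell-free fluorescence enzymatic assay read 1 h after compound addition, activity loss analyzed against DMSO. Primary duplicate testing at 25 uM; compounds meeting threshold rerun in singleton concentration-response up to 50 uM.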
# [10] = target: human Purinergic Receptor P2Y, P2RY1 (gene 5028) (UniProt P47900); test: NVS_GPCR_hPY2: NovaScreen (NVS) G Protein-Coupled Receptor Assay for human Purinergic Receptor P2Y (AID 2283281)
# Procedure, shortened: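 Cell-free radioligand binding using U937-derived protein, 1 h after dosing, filter-based scintillation counting. Screened in duplicate at 25 uM; actives rerun as concentration-response up to 50 uM; loss of signal versus DMSO.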
# [11] = CCTE_Mundy_HCI_iCellGluta_NOG_NeuronCount: CCTE's Neurite Outgrowth Assay in iCellGluta cells for Neuron Count, Mundy Lab (AID 2284340);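 note: cells fixed about 48 h after compound addition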
# Procedure, shortened: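 Neuron count read by automated high-content imaging of Hoechst 33342 and betaIII-tubulin/Alexa Fluor-488 labelling in human iPSC glutamatergic neurons. Activity fitted relative to DMSO.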
# [12] = target: human CYP4F12, CYP4F12 (gene 66002) (UniProt Q9HCS2); test: NVS_ADME_hCYP4F12: NovaScreen (NVS) CYP450-related Enzyme Activity (ADME) Assay for human CYP4F12 (AID 2283111)
# Procedure, shortened: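 Cell-free fluorescence assay of recombinant human CYP4F12 activity on a specific substrate, read 0.5 h after dosing. Primary screen in duplicate at 10 uM, then concentration series for actives; loss of signal fitted against acetonitrile negative control.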
# [13] = ATG_M_06_XSP2: Attagene TRANS-FACTORIAL Multi-Species (XSP2) HepG2 Assay for M06 Transcription Factor (Internal Marker) (AID 2283811)
# Procedure, shortened: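 HepG2, multiplexed reporter transfection; 24 h dosing; AR stimulated with 3 nM 6-alpha-fluorotestosterone + 1.5 nM norgestrel; RNA → RT-PCR → 6-FAM primer extension → HpaI → CE. Positive direction vs DMSO.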
# [14] = target: Nuclear receptor subfamily 1 group I member 2 (Mus musculus) (UniProt O54915); test: ATG_mPXR_XSP2: Attagene TRANS-FACTORIAL Multi-Species (XSP1) HepG2 Assay for mouse Pregnane X Receptor (PXR) (AID 2283831)
# Procedure, shortened: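 Reporter transcripts were quantified by RT-PCR, FAM primer extension, HpaI digestion and capillary electrophoresis after 24 h of chemical exposure in transiently transfected HepG2 cells carrying chimeric receptor-GAL4 constructs; DMSO served as baseline.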
# [15] = target: zebrafish Thyroid Hormone Receptor beta (TRb), thrb (gene 30607) (UniProt Q9PVE4); test: ATG_zfTRb_XSP1: Attagene TRANS-FACTORIAL Multi-Species (XSP1) HepG2 Assay for zebrafish Thyroid Hormone Receptor beta (TRb) (AID 2283809)
# Procedure, shortened: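 HepG2 cells transiently transfected with multiplexed GAL4-UAS reporter units expressing chimeric zebrafish TRb–Gal4. Dosed 24 h with 3 nM 6-alpha-fluorotestosterone present; reporter mRNA measured by RT-PCR, HpaI digestion and capillary electrophoresis; gain of signal versus DMSO.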
# [16] = target: human Matrix Metalloproteinase-3 (MMP3), MMP3 (gene 4314) (UniProt P08254); test: NVS_ENZ_hMMP3: NovaScreen (NVS) Enzymatic Assay for human Matrix Metalloproteinase-3 (MMP3) (AID 2283185)
# Procedure, shortened: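 Cell-free recombinant human MMP3 activity, fluorescence intensity read 1 h after dosing. Primary screen duplicate at 25 uM, actives retested in concentration series; loss of signal vs DMSO baseline.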
# [17] = target: rat Serotonin, 5-Hydroxytryptamine Receptor 1 (5HT1), Non-Selective Binding, Htr1a (gene 24473) (UniProt P19327); test: NVS_GPCR_r5HT1_NonSelective: NovaScreen (NVS) G Protein-Coupled Receptor Assay for rat Serotonin, 5-Hydroxytryptamine Receptor 1 (5HT1), Non-Selective Binding (AID 2283286)
# Procedure, shortened: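 Rat cortical membranes, radioligand displacement, 1 h incubation, read by filter scintillation. Primary screen in duplicate at 25 uM. Hits (e.g. ≥30% inhibition) went to concentration-response up to 50 uM, fitted as loss of binding versus DMSO.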
# [18] = target: rat Neurotensin Receptor (NTS), Ntsr1 (gene 366274) (UniProt P20789); test: NVS_GPCR_rNTS: NovaScreen (NVS) G Protein-Coupled Receptor Assay for rat Neurotensin Receptor (NTS) (AID 2283308)
# Procedure, shortened: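 Rat forebrain membranes; radioligand binding with competitive displacement, read by filter-based scintillation counting 1 h after dosing. Primary screen in duplicate at 25 uM; actives (e.g., 30% inhibition) rerun in concentration-response up to 50 uM, loss-of-signal versus DMSO.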
# [19] = target: guinea pig Opioid, Kappa 1 Receptor (OpiateK), OPRK1 (gene 100135587) (UniProt P41144); test: NVS_GPCR_gOpiateK: NovaScreen (NVS) G Protein-Coupled Receptor Assay for guinea pig Opioid, Kappa 1 Receptor (OpiateK) (AID 2283252);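 note: radioligand displacement from kappa opioid receptor in guinea pig cerebellar membranes; active means reduced radioligand binding relative to DMSO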
# Procedure, shortened: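 Signal is scintillation counts of filter-trapped radioligand bound to guinea pig cerebellar membrane receptor, measured 2 hours post-dosing. Activity is loss of binding versus DMSO, first at 25 uM in duplicate, then as concentration series for actives.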
# [20] = target: cAMP-dependent protein kinase catalytic subunit alpha (Homo sapiens) (UniProt P17612); test: NVS_ENZ_hPKA: NovaScreen (NVS) Enzymatic Assay for human Protein Kinase A (PKA) (AID 2283192)
# Procedure, shortened: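 Recombinant human PKA with specific fluorescent substrate, product separated by electrophoretic mobility shift, read 1 h after dosing. Primary screen at 25 uM in duplicate; actives then run in concentration-response up to 50 uM, activity relative to DMSO.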
compound,measurement,setting,value
Cc1cnc(C2=NC(C)(C(C)C)C(=O)N2)c(C(=O)O)c1 (stereo not given),outcome,[1],inactive
same,outcome,[2],inactive
CC(C)=CC1C(C(=O)OCN2C(=O)C3=C(CCCC3)C2=O)C1(C)C (stereo not given),AC50,[3],inconclusive: 25 µM
CCOP(=O)(NC(C)C)Oc1ccc(SC)c(C)c1 (stereo not given),AC50,[4],inconclusive: 2.63 µM
CCCCN(CC)c1c([N+](=O)[O-])cc(C(F)(F)F)cc1[N+](=O)[O-],outcome,[5],inactive
O=P(Oc1ccccc1)(Oc1ccccc1)Oc1ccccc1,AC50,[6],inconclusive: 5 µM
O=S(=O)(O)C(F)(F)C(F)(F)C(F)(F)C(F)(F)C(F)(F)C(F)(F)C(F)(F)C(F)(F)F,AC50,[7],active: 15.7 µM and active: 5.63 µM
same,AC50,[8],active: 27.2 µM and active: 25.9 µM
same,AC50,[9],active: 1.73 µM
same,AC50,[10],active: 15.8 µM
same,AC50,[11],inconclusive: 50 µM
C=CCC1=C(C)[C@@H](OC(=O)[C@@H]2[C@@H](C=C(C)C)C2(C)C)CC1=O,AC50,[6],inconclusive: 0.01 µM
ClC1C(Cl)C(Cl)C(Cl)C(Cl)C1Cl (stereo not given),AC50,[9],inconclusive: 25 µM
CCCCC(CC)COC(=O)c1ccc(C(=O)OCC(CC)CCCC)c(C(=O)OCC(CC)CCCC)c1 (stereo not given),AC50,[12],inconclusive: 0.537 µM
same,AC50,[10],inconclusive: 25 µM
same,AC50,[13],inconclusive: 24.4 µM
same,outcome,[14],inactive
CCCC1COC(Cn2cncn2)(c2ccc(Cl)cc2Cl)O1 (stereo not given),AC50,[15],inconclusive: 100 µM
same,AC50,[14],active: 3.79 µM
CC(C)N(Cc1ccccc1)C(=O)C(C)(C)C,outcome,[1],inactive
CSC(=O)c1c(C(F)F)nc(C(F)(F)F)c(C(=O)SC)c1CC(C)C,outcome,[15],inactive
same,AC50,[13],inconclusive: 100 µM
CNC(=O)ON=C(C)SC,AC50,[16],inconclusive: 25 µM
Cc1nc(N(C)C)nc(OC(=O)N(C)C)c1C,AC50,[17],inconclusive: 25 µM
CCOP(=S)(OCC)SCCSCC,AC50,[18],inconclusive: 6.91 µM
COC(=O)N(C(=O)N1CO[C@@]2(C(=O)OC)Cc3cc(Cl)ccc3C2=N1)c1ccc(OC(F)(F)F)cc1,AC50,[16],inconclusive: 6.75 µM
same,AC50,[19],inconclusive: 0.154 µM
CN1COCN(Cc2cnc(Cl)s2)C1=N[N+](=O)[O-],outcome,[4],inactive
same,AC50,[11],inconclusive: 0.00175 µM
O=C(O)c1nc(Cl)ccc1Cl,AC50,[20],inconclusive: 25 µM
same,AC50,[3],inconclusive: 6.04 µM
same,AC50,[18],inconclusive: 6.55 µM
same,outcome,[2],inactive
CN(C)N=O,AC50,[19],inconclusive: 1.7 µM
O=C(Nc1ccccc1)Nc1ccnc(Cl)c1,AC50,[20],inconclusive: 0.113 µM
CC(C)(C)OOC(C)(C)CCC(C)(C)OOC(C)(C)C,AC50,[12],inconclusive: 0.405 µM
CCCCOC(=O)c1ccccc1C(=O)O,AC50,[17],inconclusive: 25 µM
CCOc1nc(C(Cl)(Cl)Cl)ns1,AC50,[8],inconclusive: 25 µM
Clc1ccc(C(c2ccc(Cl)cc2)C(Cl)(Cl)Cl)cc1,AC50,[5],inconclusive: 0.000242 µM
CCCCN(CCCC)N=O,AC50,[7],inconclusive: 25 µM
